{"sequences": {"note": "By UniProt entry, the sequences of proteins in these tests, tags left out. Where a name states a change or a piece, a line headed by the entry shows the natural chain unless it says otherwise. Residues count along the entry.", "UniProt Q15116, residues 25-288": "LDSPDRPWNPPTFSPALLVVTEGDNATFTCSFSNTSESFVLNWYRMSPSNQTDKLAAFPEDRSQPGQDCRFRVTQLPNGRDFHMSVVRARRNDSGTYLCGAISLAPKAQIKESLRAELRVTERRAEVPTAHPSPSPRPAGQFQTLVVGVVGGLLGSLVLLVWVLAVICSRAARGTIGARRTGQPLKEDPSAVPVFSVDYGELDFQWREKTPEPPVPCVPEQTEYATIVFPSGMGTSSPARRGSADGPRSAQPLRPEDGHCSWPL", "UniProt Q9EP73": "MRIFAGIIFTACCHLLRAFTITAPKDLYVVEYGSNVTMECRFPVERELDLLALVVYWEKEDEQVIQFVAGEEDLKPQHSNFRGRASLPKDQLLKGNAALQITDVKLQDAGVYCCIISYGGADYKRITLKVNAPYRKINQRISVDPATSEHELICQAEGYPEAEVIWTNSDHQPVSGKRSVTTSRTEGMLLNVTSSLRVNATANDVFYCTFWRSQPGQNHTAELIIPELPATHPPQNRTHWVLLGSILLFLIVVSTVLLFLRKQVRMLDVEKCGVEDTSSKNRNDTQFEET"}, "source": "patent US20230174619A1", "about": "(published 2023)", "target": "PD-1 on human T cells (CD4+ and CD8+ T cells of PBMCs from human blood donors) (human) (UniProt Q15116)", "assay": "conclusion from flow cytometry of PD-1 on T cells in mixed lymphocyte reaction cultures", "note": "These are yes or no findings as the source states them, for the method shown. Some entries that bind do so weakly or less than the wild type."}
{"substance": "PHI258 (PD-L1 variant 258) as added to the mixed lymphocyte reaction of Example 2 (from UniProt Q9EP73 18-132) (ligand)", "values": [{"measurement": "binding", "result": "binds"}]}
